We go through 1 molecule from paper PMC6435041.

Chains of the proteins cited; added tags and fusions are not shown. Lines headed by an entry give the natural chain unless they say otherwise; changes in a name come on top. A line that says so, or that is headed by a name, gives the form on record, which may keep a tag or linker.
UniProt Q16637: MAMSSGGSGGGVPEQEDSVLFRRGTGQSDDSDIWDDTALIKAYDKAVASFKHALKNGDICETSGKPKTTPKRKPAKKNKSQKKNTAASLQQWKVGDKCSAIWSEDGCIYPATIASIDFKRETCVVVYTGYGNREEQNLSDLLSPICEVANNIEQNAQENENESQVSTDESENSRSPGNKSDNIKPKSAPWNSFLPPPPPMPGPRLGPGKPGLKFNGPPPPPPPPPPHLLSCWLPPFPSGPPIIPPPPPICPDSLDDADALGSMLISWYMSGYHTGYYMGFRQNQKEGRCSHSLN
Myc-SMN2a (SMN-Δ7, exon 7-deleted form of survival motor neuron protein) (Q16637, form named): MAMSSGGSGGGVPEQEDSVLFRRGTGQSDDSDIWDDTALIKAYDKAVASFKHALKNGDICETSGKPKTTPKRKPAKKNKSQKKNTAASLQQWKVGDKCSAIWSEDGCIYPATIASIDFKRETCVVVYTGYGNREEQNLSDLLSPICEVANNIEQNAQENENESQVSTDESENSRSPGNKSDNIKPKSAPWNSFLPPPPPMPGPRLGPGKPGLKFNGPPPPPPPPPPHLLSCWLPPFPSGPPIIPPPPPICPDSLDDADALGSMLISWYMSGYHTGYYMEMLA

These are yes or no findings as the source states them, for the method shown. Binding seen in cells or lysates may run through a third protein. Some results given as binding are weak or reduced against the parent protein; the word gives no strength. Where a sequence is shown, tags or fusion partners need not be part of it.

For assay [1], the target named is Myc-SMN2a (SMN-Δ7, exon 7-deleted form of survival motor neuron protein) (human) (UniProt Q16637). Description: co-IP; HEK293 cells co-transfected with 1 μg protease plasmid, 1 μg pLVX-Tight-Myc-SMN2a/d and 1 μg EF1α-rtTA plasmid; which partner was precipitated is not told for this experiment.
For assay [2], the target named is Myc-SMN2d (SMN-FL, full-length survival motor neuron protein) (human) (UniProt Q16637). The assay is described as above.

B1: HA-tagged CAPN7 (enzyme, UniProt Q9Y6W3 1-813)
chain: MDATALERDAVQFARLAVQRDHEGRYSEAVFYYKEAAQALIYAEMAGSSLENIQEKITEYLERVQALHSAVQSKSADPLKSKHQLDLERAHFLVTQAFDEDEKENVEDAIELYTEAVDLCLKTSYETADKVLQNKLKQLARQALDRAEALSEPLTKPVGKISSTSVKPKPPPVRAHFPLGANPFLERPQSFISPQSCDAQGQRYTAEEIEVLRTTSKINGIEYVPFMNVDLRERFAYPMPFCDRWGKLPLSPKQKTTFSKWVRPEDLTNNPTMIYTVSSFSIKQTIVSDCSFVASLAISAAYERRFNKKLITGIIYPQNKDGEPEYNPCGKYMVKLHLNGVPRKVIIDDQLPVDHKGELLCSYSNNKSELWVSLIEKAYMKVMGGYDFPGSNSNIDLHALTGWIPERIAMHSDSQTFSKDNSFRMLYQRFHKGDVLITASTGMMTEAEGEKWGLVPTHAYAVLDIREFKGLRFIQLKNPWSHLRWKGRYSENDVKNWTPELQKYLNFDPRTAQKIDNGIFWISWDDLCQYYDVIYLSWNPGLFKESTCIHSTWDAKQGPVKDAYSLANNPQYKLEVQCPQGGAAVWVLLSRHITDKDDFANNREFITMVVYKTDGKKVYYPADPPPYIDGIRINSPHYLTKIKLTTPGTHTFTLVVSQYEKQNTIHYTVRVYSACSFTFSKIPSPYTLSKRINGKWSGQSAGGCGNFQETHKNNPIYQFHIEKTGPLLIELRGPRQYSVGFEVVTVSTLGDPGPHGFLRKSSGDYRCGFCYLELENIPSGIFNIIPSTFLPKQEGPFFLDFNSIIPIKITQLQ
In the case of B1, the binding entry in assay [1] and in assay [2] was “binds” each time.
